From US4594190A, “Quaternary salts of dibenzo[1,4]diazepinones, pyrido-[1,4]benzodiazepinones, pyrido[1,5]benzodiazepinones with antiulcer, antisecretory, spasmolytic and antimusarinic activities” (priority 1983, dated 1986)
At least one read-out could not be matched to a standard name with certainty.

Test system: muscarinic receptor
Test: Interaction with muscarinic receptor: displacement of 3H-QNB bound to receptors of rat cerebral cortex
Type: binding

Row | Compound | Interaction with muscarinic receptor (10^-5) | Interaction with muscarinic receptor (10^-6) | Interaction with muscarinic receptor (10^-7)
1 | C[N+]1(CC(=O)N2c3ccccc3C(=O)Nc3cccnc32)CCCCC1 [Compound 4, 11-[2-(Piperidin-1-yl)acetyl]-5,11-dihydro-6H-pyrido[2,3-b][1,4]benzodiazepin-6-one iodomethylate] | 90.6 | 68.9 | 17.6
2 | C[N+]1(CCC(=O)N2c3ccccc3C(=O)Nc3cccnc32)CCCCCC1 [Compound 13] | 80.9 | 22.8 | 2.7
3 | CC(C)(C)C(=O)OC[N+]1(C)CCC(C(=O)N2c3ccccc3C(=O)Nc3cccnc32)CC1 (stereo not drawn) [Compound 15] | 21.0 | 8.9 | 5.7
4 | C[N+](C)(C)CC(=O)N1c2ccccc2C(=O)Nc2cccnc21 [Compound 3, 11-(2-Dimethylaminoacetyl)-5,11-dihydro-6H-pyrido-[2,3-b][1,4]-benzodiazepin-6-one iodomethylate] | 58.5 | 14.2 | 3.6
